The nature of this test: qHTS Assay for Lipid Storage Modulators in Drosophila S3 Cells.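 For cell number change: cells counted by Cell Tracker Red CMTPX staining in the red channel.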 The note with it: BODIPY lipid droplet fluorescence, 18-24 h; for cell number change: measured here: cell count max response, cells fed with added oleic acid. The method in brief:
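Laser-scanning cytometry quantifies lipid droplet accumulation (500–530 nm total intensity; droplet/cell object ratio) in oleic acid-fed (400 uM added) Drosophila S3 cells treated with a concentration series. 20 uM Triacsin C defined 100% inhibition.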
For orientation: Quantitative high-throughput screening tests each substance at several concentrations.

Setting [1] is: measured here: lipid fluorescence (Fed channel) AC50, cells fed with added oleic acid.
The mark [2] stands for this setting: measured here: cell number channel AC50, cells fed with added oleic acid.

The list shows a part of the results. Further columns of the screen follow, without active or inactive calls. Most of these compounds were active or inconclusive in the main read-out, so they are no random draw. The note in brackets gives the kind of curve behind each potency; many fits are weak.

The AC50 is the concentration giving half of the maximal activity seen. A low value points to greater potency. As to `NS(=O)(=O)c1ccc(NC(=S)Nc2ccc(OCc3ccccc3)cc2)cc1`, the cell number change was -14%. Under setting [1], the AC50 is 0.461 µM [falling, partial curve, poor fit].
For the compound `COc1ccc(S(=O)(=O)Nc2ccc(Oc3ncccn3)c(Cl)c2)cc1`, the concentration at half-maximal activity (AC50) under setting [1] was 0.731 µM [rising, full curve, poor fit].
With `CCn1ccnc1CN(C)Cc1cn(-c2ccccc2)nc1-c1ccc(OC)cc1F`, the cell number change turned out to be 34.7%. For the same compound, the AC50 under setting [2] is 3.66 µM [rising, partial curve, poor fit].
On to `COc1ccccc1CNC(=O)C1CCN(C(=O)N(C)C)CC1`, for which the cell number change turned out to be 10.8%. The AC50 under setting [1] is 0.116 µM [rising, full curve, poor fit].
In the case of `CCCCC(CC)CNC(=O)c1ncn[nH]1` (centres undefined), the cell number change is -36.8%. Moreover, the AC50 under setting [1] is 6.51 µM [falling, single point].
For `Cc1sc(N/N=C/c2cccnc2)nc1-c1ccccc1`, the cell number change is -52.5%. For the same compound, the AC50 under setting [2] is 13 µM [falling, partial curve]. Also, under setting [1], the AC50 is 16.4 µM [falling, partial curve].
As to `O=C(CN1CCN(S(=O)(=O)c2ccccc2Cl)CC1)NCC1(N2CCOCC2)CCCCC1`, the cell number change worked out at 77.9%. In addition, under setting [2], the AC50 is 14.6 µM [rising, partial curve].
Turning to `CC(=O)Nc1ccc(Nc2ncnc3c2cnn3-c2ccc(C)cc2C)cc1`, the AC50 under setting [1] was 18.4 µM [rising, single point].
Consider `CCNc1cc2n(c(=O)n1)CCc1cc(OC)c(OC)cc1-2`, for which the cell number change is 20.2%. The AC50 under setting [2] was 3.26 µM [rising, full curve, poor fit].
On to `C=CCOc1c2ccc(C(=O)NCc3ccccc3OC)cc2nn1C`, for which the cell number change was -1.68%. In addition, the AC50 under setting [1] is 0.00517 µM [falling, full curve, poor fit].
`O=C(c1ccc2c3c(cccc13)CC2)C1CCCN(C(=O)c2cc[n+]([O-])cc2)C1` (centres undefined): the cell number change was determined as 27.6%. In addition, under setting [1], the AC50 was 6.51 µM [rising, full curve, poor fit].
For `CCNC(=S)N/N=C/c1ccc(OCCOc2ccccc2C)cc1`, the cell number change was -77.1%. Moreover, the AC50 under setting [2] is 7.31 µM [falling, partial curve, poor fit]. Under setting [1], the AC50 is 0.651 µM [falling, partial curve, poor fit].
In the case of `Cc1c(C)c2ccc(OCC(=O)NC3CCN(Cc4ccccc4)CC3)cc2oc1=O`, the cell number change worked out at 34.5%.
As to `O=C(c1ccccc1)N1CCN(c2ccc([N+](=O)[O-])c(N3CCOCC3)c2)CC1`, the cell number change was -0.89%. For the same compound, under setting [1], the AC50 is 6.51 µM [falling, single point].
For the compound `Cc1cc(C)c(S(=O)(=O)Nc2ccc(O)cc2)cc1C`, the cell number change worked out at 40.1%. Under setting [2], the half-maximal activity concentration (AC50) is 29.1 µM [rising, single point]. Further, the AC50 under setting [1] is 0.651 µM [rising, partial curve, poor fit].
Take `Cc1noc(/C=C/N(C)C)c1S(=O)(=O)N1CCCC(C(=O)NCc2cccs2)C1` (centres undefined): the cell number change was determined as 83.9%. For the same compound, the AC50 under setting [2] is 29.1 µM [rising, single point].
Turning to `CCc1nnc(NC(=O)CSc2nnc(CNc3ccc(F)cc3)n2C2CCCCC2)s1`, the cell number change is -21.1%. Further, the AC50 under setting [2] was 0.00461 µM [falling, full curve, poor fit]. Under setting [1], the half-maximal activity concentration (AC50) is 0.411 µM [falling, partial curve, poor fit].
For the compound `O=C(O)c1ccc(N/N=C/C=C/c2ccccc2)cc1`, the cell number change stood at 13.4%. For the same compound, the AC50 under setting [1] is 18.4 µM [rising, single point].
For `Nc1nc(SCC(=O)Nc2ccccc2)[nH]c(=O)c1-c1ccccc1`, the cell number change is -1.05%. In addition, the AC50 under setting [1] was 0.58 µM [falling, single point].
For the compound `Cc1cccc(N(C(=O)c2csnn2)C(C(=O)NC2CCCCC2)c2ccccn2)c1C` (centres undefined), the cell number change is -2.92%. The AC50 under setting [1] was 9.2 µM [rising, single point].
Take `COCCNc1nc2ccccc2nc1NS(=O)(=O)c1ccc(C)cc1C`: the cell number change came to 42.5%. In addition, under setting [2], the concentration at half-maximal activity (AC50) was 2.06 µM [rising, partial curve]. Besides, the AC50 under setting [1] is 7.31 µM [rising, partial curve].
With `COc1ccc(CNC(=O)CCCN2C(=O)c3ccccc3C2=O)cc1`, the cell number change is 146%. The half-maximal activity concentration (AC50) under setting [2] is 0.00461 µM [falling, full curve, poor fit]. Further, the AC50 under setting [1] is 0.00461 µM [falling, full curve, poor fit].
For `CC(C)(C)c1ccc(-c2cn(-c3ccc(Br)cc3)c3[n+]2CCCS3)cc1`, the cell number change is -69.7%. Besides, under setting [2], the AC50 is 2.06 µM [falling, full curve]. Further, the AC50 under setting [1] is 2.59 µM [falling, full curve].
`CC1COc2ccccc2N1S(=O)(=O)c1cc(Cl)ccc1Cl` (centres undefined): the cell number change was 16.3%. For the same compound, the concentration at half-maximal activity (AC50) under setting [1] was 6.51 µM [rising, partial curve].
Consider `CC(C)CC(C(=O)OCC(=O)Nc1cccc(Cl)c1)N1C(=O)C2CC=CCC2C1=O` (centres undefined), for which the cell number change was -31.7%. Also, the AC50 under setting [2] is 23.1 µM [falling, single point]. Moreover, the AC50 under setting [1] is 14.6 µM [falling, single point].
As to `Cc1ccc(OCC(=O)Nc2sc3c(c2C#N)CCC3)cc1C`, the cell number change was -38.2%. Further, the AC50 under setting [2] was 20.6 µM [falling, partial curve].
On to `Cc1ccc2nc(NC(=O)COC(=O)c3ccccn3)sc2c1`, for which the AC50 under setting [2] was 3.26 µM [falling, single point] and the AC50 under setting [1] was 3.66 µM [falling, single point].
As to `COc1ccc(S(=O)(=O)N2CCN(c3ccc(C)cc3C)CC2)cc1OC`, under setting [2], the AC50 was 5.17 µM [rising, single point].
As to `O=C(Oc1cccnc1)c1ccc(Cl)c(Cl)c1`, the cell number change stood at 43.1%. Further, the concentration at half-maximal activity (AC50) under setting [2] is 18.4 µM [rising, single point]. Also, under setting [1], the AC50 was 29.1 µM [rising, single point].
As to `Cc1ccc2c(c1)N(C(=O)CCC(=O)N1CCC(C(N)=O)CC1)CCO2`, the cell number change worked out at 13%. Also, the AC50 under setting [1] was 0.58 µM [rising, full curve, poor fit].
As to `Cc1c(Cl)cccc1NC(=O)CCC(=O)NNC(=O)CCC(=O)O`, the cell number change is -2.7%. For the same compound, under setting [2], the AC50 is 6.51 µM [rising, single point].
In the case of `Cc1occc1-c1nnc(SCC(=O)NC2CCCCC2C)o1` (centres undefined), under setting [1], the concentration at half-maximal activity (AC50) was 6.51 µM [falling, single point].
Regarding `CCc1ccc(C2CC(=O)N(c3cccc(F)c3)C3=C2C(=O)OC3)cc1` (centres undefined), the AC50 under setting [2] is 3.66 µM [falling, partial curve, poor fit].
With `COc1cc2oc3cc(C)oc(=O)c3c2cc1OC`, the cell number change came out at 48.9%. For the same compound, under setting [2], the AC50 was 6.51 µM [rising, partial curve, poor fit].
`CCN(c1ccccc1)S(=O)(=O)c1ccc(Cl)c(NC(=O)COC(=O)C2CC2C)c1` (centres undefined): the cell number change was determined as 57.8%. The AC50 under setting [2] is 29.1 µM [rising, single point]. Under setting [1], the AC50 was 18.4 µM [rising, single point].
Consider `COc1ccc(S(=O)(=O)NCC2CCCN(C(=O)CN3CCCCC3)C2)cc1` (centres undefined), for which the cell number change is 12%.
Regarding `Cc1ccc(C(=O)Nc2ccc3c(c2)nc(CCNC(=O)c2ccco2)n3C)cc1`, the cell number change came out at 108%. In addition, under setting [2], the AC50 was 29.1 µM [rising, single point]. Further, the AC50 under setting [1] was 29.1 µM [rising, single point].
As to `COc1ccc(S(=O)(=O)CC(=O)c2cc3cccc(C)c3oc2=O)cc1`, the cell number change was -4.25%. For the same compound, the half-maximal activity concentration (AC50) under setting [1] is 6.51 µM [falling, single point].
`N#C/C(=C/c1ccc(-c2ccccc2)o1)c1nc(-c2cccs2)cs1`: the AC50 under setting [1] is 2.91 µM [falling, partial curve].
`C=C1CC(C(=O)N/N=C/c2ccc(O)cc2)C1`: the cell number change is -44.1%. The AC50 under setting [1] was 25.9 µM [falling, partial curve, poor fit].
Turning to `CC(C)NC(=O)C1CCCN(S(=O)(=O)c2ccc(-n3cnnn3)cc2)C1` (centres undefined), the cell number change worked out at 16.7%. Also, the AC50 under setting [2] is 4.61 µM [falling, single point]. Further, the AC50 under setting [1] is 1.3 µM [falling, partial curve].
With `CCc1noc(C)c1C(=O)Nc1nc(-c2ccc(OC)c(OC)c2)cs1`, the cell number change was found to be 30.8%. Under setting [2], the AC50 was 1.16 µM [rising, full curve]. In addition, under setting [1], the AC50 is 0.411 µM [rising, full curve].
In the case of `CC1(C)C(=O)Nc2ccccc2N1C(=O)COC(=O)c1cc(S(=O)(=O)N2CCOCC2)ccc1F`, under setting [2], the AC50 was 0.82 µM [falling, single point].
For the compound `Cc1nn(S(=O)(=O)c2ccc(F)cc2)c(C)c1S(=O)(=O)N1CCCCC1`, the cell number change turned out to be 6.23%. Besides, the half-maximal activity concentration (AC50) under setting [1] is 0.58 µM [rising, single point].
In the case of `Nc1ncnc2nc(SCCc3ccccc3)[nH]c12`, the cell number change is -36%. Besides, the AC50 under setting [2] was 4.61 µM [falling, partial curve].
For the compound `Cc1ccccc1-c1nnc(SCC(=O)NC2CCCC2)o1`, the cell number change was found to be 15.2%.
Take `C=CCN1C(=O)C(O)=C(C(C)=O)C1c1ccccc1F` (centres undefined): the cell number change was found to be 0.929%. In addition, the AC50 under setting [1] was 0.0058 µM [falling, full curve, poor fit].
For `COc1ccc(NC(=O)/C(=C/c2cccs2)NC(=O)c2ccco2)cc1`, the AC50 under setting [1] is 0.517 µM [falling, full curve].
For the compound `O=c1ccc(-c2ccccc2)n[nH]1`, the cell number change was -32.1%. Under setting [2], the AC50 is 1.64 µM [falling, full curve, poor fit].
For `COC(=O)c1ccc(CSCc2ccc(C#N)cc2)cc1`, the cell number change is 34.8%.
With `O=[N+]([O-])c1ccc(C(=S)N2CCCC2)cc1`, the cell number change was 101%. Moreover, the AC50 under setting [2] is 29.1 µM [rising, single point].
Take `Nc1nnc(CCOc2ccccc2Cl)s1`: the cell number change was 29.9%.
For the compound `COc1ccccc1C(C)NC(=O)CN(C)CC(=O)Nc1c(C)cccc1C` (centres undefined), the cell number change is 11.6%. Moreover, under setting [1], the AC50 is 25.9 µM [rising, single point].
Regarding `CCOc1ccc2nc(NS(=O)(=O)c3ccc4c(c3)n(C)c(=O)n4C)sc2c1`, the cell number change was found to be 3.25%.
As to `COc1cccc(CC(=O)Nc2nc3ccccc3[nH]2)c1`, the cell number change is -53.1%. For the same compound, the concentration at half-maximal activity (AC50) under setting [1] was 0.0116 µM [falling, full curve, poor fit].
`COc1cc(C(=O)c2cocc2C(=O)c2ccc3c(c2)OCO3)cc(OC)c1OC`: the cell number change is 27.9%. Besides, under setting [2], the AC50 was 0.146 µM [rising, full curve, poor fit]. In addition, under setting [1], the AC50 is 29.1 µM [rising, single point].
For the compound `C#CCOc1nc(C)cc(C)c1S(=O)(=O)c1ccccc1C`, the cell number change was 12.6%. Under setting [1], the AC50 was 0.103 µM [rising, full curve, poor fit].

These data come from PubChem BioAssay AID2685 (National Center for Advancing Translational Sciences (NCATS), 2010).
